According to doi:10.1101/2021.02.01.429225:
These are yes or no findings as the source states them, for the method shown.

The chains behind the UniProt entries cited, without tags or fusion partners.
UniProt Q9BU64: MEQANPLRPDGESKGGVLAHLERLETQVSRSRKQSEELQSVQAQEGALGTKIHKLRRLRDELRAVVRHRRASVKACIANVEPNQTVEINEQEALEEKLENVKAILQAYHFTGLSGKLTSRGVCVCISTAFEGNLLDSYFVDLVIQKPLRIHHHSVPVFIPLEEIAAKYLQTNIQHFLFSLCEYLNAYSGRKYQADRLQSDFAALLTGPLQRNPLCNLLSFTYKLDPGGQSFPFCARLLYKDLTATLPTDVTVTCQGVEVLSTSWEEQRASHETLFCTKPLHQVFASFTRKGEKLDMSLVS
UniProt Q7L2Z9: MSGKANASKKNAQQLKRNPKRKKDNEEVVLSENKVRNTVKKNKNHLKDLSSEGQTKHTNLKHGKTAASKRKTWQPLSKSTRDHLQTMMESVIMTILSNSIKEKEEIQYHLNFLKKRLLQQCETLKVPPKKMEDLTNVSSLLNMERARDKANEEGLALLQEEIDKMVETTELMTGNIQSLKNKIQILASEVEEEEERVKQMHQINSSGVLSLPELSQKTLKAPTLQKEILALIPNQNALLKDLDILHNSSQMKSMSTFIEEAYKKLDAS
UniProt Q71F23: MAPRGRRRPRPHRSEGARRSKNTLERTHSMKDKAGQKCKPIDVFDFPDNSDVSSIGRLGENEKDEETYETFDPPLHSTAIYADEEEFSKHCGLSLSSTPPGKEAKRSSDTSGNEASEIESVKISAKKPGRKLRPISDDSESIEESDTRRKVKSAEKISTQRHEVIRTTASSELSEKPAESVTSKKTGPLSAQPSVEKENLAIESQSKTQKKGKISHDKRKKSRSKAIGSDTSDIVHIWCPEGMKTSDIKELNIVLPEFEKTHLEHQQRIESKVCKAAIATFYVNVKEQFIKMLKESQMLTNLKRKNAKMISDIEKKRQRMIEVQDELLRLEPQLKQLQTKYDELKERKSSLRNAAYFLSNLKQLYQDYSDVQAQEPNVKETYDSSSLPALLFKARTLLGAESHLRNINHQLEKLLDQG
UniProt Q13352: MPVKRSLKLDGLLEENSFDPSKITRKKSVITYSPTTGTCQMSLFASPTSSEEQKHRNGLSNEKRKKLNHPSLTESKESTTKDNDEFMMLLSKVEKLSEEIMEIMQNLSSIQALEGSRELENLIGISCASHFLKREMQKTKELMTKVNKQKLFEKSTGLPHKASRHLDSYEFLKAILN
UniProt Q6IPU0: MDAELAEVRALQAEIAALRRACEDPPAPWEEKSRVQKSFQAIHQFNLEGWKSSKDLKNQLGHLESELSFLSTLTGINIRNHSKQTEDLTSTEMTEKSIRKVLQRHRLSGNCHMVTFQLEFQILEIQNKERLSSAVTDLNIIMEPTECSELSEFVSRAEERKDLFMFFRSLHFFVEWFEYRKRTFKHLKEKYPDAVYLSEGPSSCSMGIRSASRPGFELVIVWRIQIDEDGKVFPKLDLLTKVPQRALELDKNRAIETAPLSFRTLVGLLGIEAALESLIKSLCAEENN
UniProt Q9NQS7: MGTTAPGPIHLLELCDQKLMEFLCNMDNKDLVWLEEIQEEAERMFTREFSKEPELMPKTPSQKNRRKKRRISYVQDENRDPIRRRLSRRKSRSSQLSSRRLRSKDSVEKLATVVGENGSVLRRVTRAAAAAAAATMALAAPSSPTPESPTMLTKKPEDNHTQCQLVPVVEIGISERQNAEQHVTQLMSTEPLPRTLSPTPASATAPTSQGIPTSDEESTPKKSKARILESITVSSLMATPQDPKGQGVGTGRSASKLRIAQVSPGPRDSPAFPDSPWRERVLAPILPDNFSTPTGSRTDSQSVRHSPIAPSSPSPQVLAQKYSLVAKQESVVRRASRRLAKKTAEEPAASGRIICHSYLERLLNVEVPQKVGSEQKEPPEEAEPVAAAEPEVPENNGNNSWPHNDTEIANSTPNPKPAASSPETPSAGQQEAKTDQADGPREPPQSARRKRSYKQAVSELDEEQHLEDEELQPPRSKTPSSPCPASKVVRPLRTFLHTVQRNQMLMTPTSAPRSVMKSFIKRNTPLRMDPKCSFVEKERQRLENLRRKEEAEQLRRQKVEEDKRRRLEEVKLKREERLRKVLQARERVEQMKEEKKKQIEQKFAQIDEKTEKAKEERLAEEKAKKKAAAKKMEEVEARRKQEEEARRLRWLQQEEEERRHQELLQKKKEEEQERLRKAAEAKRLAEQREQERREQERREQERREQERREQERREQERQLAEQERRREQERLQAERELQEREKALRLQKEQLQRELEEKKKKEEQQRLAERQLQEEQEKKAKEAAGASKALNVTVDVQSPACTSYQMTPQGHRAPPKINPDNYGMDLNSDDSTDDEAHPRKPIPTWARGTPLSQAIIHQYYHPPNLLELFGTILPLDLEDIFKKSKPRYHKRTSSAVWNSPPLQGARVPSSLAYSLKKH

What was measured:
Test in all cases: LacO/LacI tethering and recruitment, read by immunofluorescence
[1] = molecular target: EGFP-LacI-CENP-O (UniProt Q9BU64)
[2] = molecular target: EGFP-LacI-CENP-Q (UniProt Q7L2Z9)
[3] = molecular target: EGFP-LacI-CENP-U (UniProt Q71F23)
[4] = molecular target: EGFP-LacI-CENP-R (UniProt Q13352)
[5] = molecular target: EGFP-LacI-CENP-P (UniProt Q6IPU0)

binding [1]	binding [2]	binding [3]	binding [4]	binding [5]	Substance
no binding	no binding	no binding	no binding	no binding	INCENP (from UniProt Q9NQS7 1-918)
no binding	no binding		no binding	no binding	Polo-like kinase 1 (Plk1) (from UniProt P53350 1-603) (enzyme)
